Measurements from the supplement of paper PMC10849652.
The list shows a part of the results.

By UniProt entry, the sequences of proteins in these tests, tags left out. Where a name states a change or a piece, a line headed by the entry shows the natural chain unless it says otherwise.
UniProt Q6P1K2: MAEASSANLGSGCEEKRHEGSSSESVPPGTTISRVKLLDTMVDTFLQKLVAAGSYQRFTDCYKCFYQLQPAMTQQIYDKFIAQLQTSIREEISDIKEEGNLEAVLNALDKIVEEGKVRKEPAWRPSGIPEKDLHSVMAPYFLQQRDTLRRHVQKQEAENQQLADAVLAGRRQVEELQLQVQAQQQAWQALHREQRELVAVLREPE
UniProt Q8IY26: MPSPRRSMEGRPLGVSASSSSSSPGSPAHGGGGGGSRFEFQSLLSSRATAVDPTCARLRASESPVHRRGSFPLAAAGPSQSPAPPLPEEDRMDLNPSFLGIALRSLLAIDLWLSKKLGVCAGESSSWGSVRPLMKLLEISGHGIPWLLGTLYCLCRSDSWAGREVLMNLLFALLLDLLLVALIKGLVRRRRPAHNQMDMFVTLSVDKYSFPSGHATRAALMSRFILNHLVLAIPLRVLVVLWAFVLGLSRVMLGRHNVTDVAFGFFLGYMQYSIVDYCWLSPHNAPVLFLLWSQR
UniProt O95707: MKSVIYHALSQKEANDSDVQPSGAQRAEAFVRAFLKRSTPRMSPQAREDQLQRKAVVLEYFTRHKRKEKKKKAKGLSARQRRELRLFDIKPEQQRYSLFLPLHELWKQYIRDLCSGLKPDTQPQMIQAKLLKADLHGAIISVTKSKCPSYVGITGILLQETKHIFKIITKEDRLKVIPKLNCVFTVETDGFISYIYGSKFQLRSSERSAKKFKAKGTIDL
UniProt Q06203, whole entry, looked up: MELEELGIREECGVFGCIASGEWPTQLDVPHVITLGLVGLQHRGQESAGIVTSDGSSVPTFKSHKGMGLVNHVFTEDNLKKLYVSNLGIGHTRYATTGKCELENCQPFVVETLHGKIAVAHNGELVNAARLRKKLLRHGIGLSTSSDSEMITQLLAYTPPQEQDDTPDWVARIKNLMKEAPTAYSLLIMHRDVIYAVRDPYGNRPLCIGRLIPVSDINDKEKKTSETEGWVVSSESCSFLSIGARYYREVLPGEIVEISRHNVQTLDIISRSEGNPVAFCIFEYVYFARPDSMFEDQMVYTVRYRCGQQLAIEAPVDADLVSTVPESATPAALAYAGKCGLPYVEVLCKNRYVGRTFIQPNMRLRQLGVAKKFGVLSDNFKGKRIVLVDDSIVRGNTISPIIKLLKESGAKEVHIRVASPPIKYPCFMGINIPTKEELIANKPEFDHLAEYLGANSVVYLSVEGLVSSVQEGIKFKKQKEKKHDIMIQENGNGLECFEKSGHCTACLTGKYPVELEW
UniProt Q9UHN1: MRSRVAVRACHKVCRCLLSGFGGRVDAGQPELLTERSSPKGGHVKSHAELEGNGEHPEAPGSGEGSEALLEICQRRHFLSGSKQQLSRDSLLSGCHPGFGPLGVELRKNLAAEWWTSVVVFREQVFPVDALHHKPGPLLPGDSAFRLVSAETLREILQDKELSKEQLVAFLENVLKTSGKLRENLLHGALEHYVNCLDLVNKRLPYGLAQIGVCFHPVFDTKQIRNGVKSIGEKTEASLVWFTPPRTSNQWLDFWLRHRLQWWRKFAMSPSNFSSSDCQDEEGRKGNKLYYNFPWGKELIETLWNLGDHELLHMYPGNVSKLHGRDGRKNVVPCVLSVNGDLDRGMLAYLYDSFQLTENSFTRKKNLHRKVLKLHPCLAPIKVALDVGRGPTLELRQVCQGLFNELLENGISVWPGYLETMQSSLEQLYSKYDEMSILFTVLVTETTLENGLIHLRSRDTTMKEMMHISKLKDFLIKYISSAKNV
UniProt O60568: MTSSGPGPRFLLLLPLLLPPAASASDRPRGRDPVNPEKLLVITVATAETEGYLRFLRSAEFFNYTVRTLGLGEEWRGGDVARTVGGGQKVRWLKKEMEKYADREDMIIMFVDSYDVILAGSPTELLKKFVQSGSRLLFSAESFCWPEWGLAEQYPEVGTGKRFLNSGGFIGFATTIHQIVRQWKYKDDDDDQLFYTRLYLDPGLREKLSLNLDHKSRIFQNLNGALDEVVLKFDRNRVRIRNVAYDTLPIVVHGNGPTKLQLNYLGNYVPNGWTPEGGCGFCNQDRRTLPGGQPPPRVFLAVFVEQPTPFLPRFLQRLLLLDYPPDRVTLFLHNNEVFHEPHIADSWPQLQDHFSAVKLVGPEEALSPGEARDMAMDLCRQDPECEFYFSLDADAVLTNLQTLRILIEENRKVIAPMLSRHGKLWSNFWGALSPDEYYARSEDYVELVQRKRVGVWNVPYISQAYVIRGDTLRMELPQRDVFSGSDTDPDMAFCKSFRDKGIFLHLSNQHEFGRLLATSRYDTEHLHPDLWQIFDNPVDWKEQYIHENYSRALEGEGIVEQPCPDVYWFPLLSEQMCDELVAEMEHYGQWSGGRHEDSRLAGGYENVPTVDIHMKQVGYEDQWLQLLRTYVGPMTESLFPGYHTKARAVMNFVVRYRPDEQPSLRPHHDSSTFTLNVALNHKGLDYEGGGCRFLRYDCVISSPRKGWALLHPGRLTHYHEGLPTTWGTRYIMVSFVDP
UniProt P45877: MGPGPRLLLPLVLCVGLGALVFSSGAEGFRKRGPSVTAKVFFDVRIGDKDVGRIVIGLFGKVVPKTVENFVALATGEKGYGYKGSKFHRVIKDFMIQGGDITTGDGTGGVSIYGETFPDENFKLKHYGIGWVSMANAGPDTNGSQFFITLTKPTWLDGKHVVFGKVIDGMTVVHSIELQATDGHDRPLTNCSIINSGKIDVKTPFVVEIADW
UniProt Q7Z4H8: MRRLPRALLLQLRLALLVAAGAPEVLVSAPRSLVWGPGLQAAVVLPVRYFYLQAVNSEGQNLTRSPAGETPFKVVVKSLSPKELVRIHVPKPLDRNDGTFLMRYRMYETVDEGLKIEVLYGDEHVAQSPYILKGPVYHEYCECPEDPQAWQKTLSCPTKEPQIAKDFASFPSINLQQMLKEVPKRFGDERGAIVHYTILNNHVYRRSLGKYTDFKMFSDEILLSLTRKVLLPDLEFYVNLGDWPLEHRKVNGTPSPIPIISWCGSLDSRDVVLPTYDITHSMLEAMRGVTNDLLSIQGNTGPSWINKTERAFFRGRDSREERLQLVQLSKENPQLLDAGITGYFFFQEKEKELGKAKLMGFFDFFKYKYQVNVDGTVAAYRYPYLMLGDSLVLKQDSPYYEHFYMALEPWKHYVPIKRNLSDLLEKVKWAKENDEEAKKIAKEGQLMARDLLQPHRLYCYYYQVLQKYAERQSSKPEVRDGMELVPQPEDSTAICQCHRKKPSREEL
UniProt Q15063: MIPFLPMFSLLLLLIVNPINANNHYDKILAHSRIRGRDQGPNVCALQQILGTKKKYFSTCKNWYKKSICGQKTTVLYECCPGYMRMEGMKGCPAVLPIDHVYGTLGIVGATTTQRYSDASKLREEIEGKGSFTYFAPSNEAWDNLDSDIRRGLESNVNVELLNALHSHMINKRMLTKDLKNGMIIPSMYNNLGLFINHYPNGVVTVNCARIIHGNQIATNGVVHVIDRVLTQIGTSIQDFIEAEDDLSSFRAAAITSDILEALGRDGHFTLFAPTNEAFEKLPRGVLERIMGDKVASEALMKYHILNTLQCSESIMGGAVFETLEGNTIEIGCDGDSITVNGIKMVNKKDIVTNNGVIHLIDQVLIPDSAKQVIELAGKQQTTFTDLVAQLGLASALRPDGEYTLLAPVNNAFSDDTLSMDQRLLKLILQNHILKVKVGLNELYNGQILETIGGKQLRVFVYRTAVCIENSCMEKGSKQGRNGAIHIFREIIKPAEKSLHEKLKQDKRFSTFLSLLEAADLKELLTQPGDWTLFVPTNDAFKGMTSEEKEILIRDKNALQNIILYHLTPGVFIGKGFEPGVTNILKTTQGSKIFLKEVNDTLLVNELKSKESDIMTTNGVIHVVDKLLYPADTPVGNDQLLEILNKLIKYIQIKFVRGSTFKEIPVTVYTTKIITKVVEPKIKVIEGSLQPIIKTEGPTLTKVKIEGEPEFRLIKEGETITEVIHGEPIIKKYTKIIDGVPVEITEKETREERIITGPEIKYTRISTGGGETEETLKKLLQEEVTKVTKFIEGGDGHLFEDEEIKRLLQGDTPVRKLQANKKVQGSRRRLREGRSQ
UniProt Q9BY77: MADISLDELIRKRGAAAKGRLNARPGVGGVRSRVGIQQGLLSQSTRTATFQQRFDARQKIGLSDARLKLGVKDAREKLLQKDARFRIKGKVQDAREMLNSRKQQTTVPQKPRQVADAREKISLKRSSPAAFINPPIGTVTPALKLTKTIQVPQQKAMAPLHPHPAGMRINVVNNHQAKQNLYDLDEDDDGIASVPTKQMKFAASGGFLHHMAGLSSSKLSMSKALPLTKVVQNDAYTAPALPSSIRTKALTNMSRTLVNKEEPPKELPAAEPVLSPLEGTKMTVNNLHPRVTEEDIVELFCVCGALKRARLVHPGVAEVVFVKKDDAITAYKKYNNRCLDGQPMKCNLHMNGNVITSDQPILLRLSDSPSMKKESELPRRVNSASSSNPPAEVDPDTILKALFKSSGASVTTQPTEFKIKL
UniProt O15318: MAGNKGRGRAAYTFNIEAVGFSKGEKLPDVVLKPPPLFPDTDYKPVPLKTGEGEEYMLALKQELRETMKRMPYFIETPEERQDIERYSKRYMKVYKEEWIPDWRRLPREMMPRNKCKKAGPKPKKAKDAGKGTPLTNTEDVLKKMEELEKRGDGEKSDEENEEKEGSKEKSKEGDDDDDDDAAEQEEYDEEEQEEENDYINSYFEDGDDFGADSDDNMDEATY
UniProt O15031: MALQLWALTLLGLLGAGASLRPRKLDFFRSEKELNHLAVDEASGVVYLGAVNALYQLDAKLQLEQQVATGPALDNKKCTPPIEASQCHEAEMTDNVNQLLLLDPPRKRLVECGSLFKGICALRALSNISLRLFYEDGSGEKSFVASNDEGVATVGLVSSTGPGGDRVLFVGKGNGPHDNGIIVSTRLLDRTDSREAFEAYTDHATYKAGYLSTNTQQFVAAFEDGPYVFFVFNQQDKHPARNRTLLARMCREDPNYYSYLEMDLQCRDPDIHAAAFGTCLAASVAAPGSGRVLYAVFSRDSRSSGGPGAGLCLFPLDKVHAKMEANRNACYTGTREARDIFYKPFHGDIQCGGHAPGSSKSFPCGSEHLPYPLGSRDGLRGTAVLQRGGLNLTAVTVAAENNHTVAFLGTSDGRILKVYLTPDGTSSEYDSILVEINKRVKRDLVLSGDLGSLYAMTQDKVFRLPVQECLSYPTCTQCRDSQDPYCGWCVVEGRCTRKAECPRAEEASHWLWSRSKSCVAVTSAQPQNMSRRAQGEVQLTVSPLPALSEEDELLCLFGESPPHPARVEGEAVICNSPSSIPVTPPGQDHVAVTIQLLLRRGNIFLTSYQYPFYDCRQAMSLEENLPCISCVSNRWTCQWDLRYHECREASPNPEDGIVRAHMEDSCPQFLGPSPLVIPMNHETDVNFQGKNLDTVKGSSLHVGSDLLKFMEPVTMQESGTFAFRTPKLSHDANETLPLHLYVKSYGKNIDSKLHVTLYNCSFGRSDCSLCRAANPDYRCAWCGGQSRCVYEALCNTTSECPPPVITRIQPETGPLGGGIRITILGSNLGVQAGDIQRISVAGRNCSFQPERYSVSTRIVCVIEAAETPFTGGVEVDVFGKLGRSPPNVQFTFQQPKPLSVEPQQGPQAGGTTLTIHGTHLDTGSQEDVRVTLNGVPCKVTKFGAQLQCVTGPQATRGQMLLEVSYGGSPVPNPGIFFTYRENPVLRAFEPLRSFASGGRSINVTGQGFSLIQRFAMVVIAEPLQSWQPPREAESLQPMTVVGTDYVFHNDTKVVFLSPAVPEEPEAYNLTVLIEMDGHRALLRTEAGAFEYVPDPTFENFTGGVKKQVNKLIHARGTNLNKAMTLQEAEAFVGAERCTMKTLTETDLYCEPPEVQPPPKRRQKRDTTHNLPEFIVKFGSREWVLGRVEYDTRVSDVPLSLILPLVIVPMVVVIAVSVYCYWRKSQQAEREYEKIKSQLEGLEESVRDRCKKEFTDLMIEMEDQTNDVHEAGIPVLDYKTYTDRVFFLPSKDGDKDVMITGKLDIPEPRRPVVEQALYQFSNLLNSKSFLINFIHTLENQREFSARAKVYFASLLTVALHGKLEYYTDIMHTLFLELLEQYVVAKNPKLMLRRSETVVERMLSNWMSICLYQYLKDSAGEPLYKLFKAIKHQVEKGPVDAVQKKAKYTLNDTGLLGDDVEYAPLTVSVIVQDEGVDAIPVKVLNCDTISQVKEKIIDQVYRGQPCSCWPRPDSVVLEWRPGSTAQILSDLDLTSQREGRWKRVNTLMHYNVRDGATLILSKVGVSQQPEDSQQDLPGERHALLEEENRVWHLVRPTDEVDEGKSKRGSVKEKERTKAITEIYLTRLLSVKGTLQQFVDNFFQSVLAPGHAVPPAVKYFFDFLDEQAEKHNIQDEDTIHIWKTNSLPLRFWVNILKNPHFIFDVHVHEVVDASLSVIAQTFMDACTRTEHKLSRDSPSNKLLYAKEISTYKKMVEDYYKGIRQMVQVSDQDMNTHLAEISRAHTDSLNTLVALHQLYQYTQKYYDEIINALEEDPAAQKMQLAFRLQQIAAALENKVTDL

Columns and labels:
Assay in all cases: log2 fold change, soluble protein after heating vs DMSO (PISA); higher = thermal stabilisation; K562 cells, 10 uM, 30 min; active = over 0.2 and 3.5 SD of the protein, either way, in both replicates (recomputed)
[1] = compound: COC1=CC=C(C=C1)CN2C=CC3=C2C=C(C=C3)C(=O)NO
Summary of the method: (§1)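 K562 cells at 2×10^6 cells/mL were given 10 μM compound for 30 min. Aliquots then went through 3 min of heating across 48°C-58°C, were pooled, and were extracted in PBS with 0.5% NP-40 at 4°C, and the supernatant after 21,000xg for 90 min was quantified by TMTpro 16plex LC-MS/MS with channel sums equalised. Thermal stability relative to control samples, from duplicates, is given as log2 fold change.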

filanesib = compound: CON(C)C(=O)N1N=C(c2cc(F)ccc2F)S[C@@]1(CCCN)c1ccccc1 [filanesib]
Summary of the method: as §1

zotarolimus = compound: CO[C@H]1C[C@@H]2CC[C@@H](C)[C@@](O)(O2)C(=O)C(=O)N2CCCC[C@H]2C(=O)O[C@H]([C@H](C)C[C@@H]2CC[C@H](n3cnnn3)[C@H](OC)C2)CC(=O)[C@H](C)/C=C(\C)[C@@H](O)[C@@H](OC)C(=O)[C@H](C)C[C@H](C)/C=C/C=C/C=C/1C [zotarolimus]
Summary of the method: as §1

idasanutlin = compound: COc1cc(C(=O)O)ccc1NC(=O)[C@@H]1N[C@@H](CC(C)(C)C)[C@](C#N)(c2ccc(Cl)cc2F)[C@H]1c1cccc(Cl)c1F [idasanutlin]
Summary of the method: as §1

alisertib = compound: COc1cc(Nc2ncc3c(n2)-c2ccc(Cl)cc2C(c2c(F)cccc2OC)=NC3)ccc1C(=O)O [alisertib]
Summary of the method: as §1

[2] = compound: COc1cc2nc(-c3cc(F)ccc3O)nc(N[C@@H]3CNC[C@H]3C(C)(C)O)c2cc1OC
Summary of the method: as §1

gefitinib = compound: COc1cc2ncnc(Nc3ccc(F)c(Cl)c3)c2cc1OCCCN1CCOCC1 [gefitinib]
Summary of the method: as §1

[3] = compound: COc1cccc2cc(-c3nc([C@H]4CC[C@H](C(=O)O)CC4)n4ncnc(N)c34)[nH]c12
Summary of the method: as §1

lapatinib = compound: CS(=O)(=O)CCNCc1ccc(-c2ccc3ncnc(Nc4ccc(OCc5cccc(F)c5)c(Cl)c4)c3c2)o1 [lapatinib]
Summary of the method: as §1

pictilisib = compound: CS(=O)(=O)N1CCN(Cc2cc3nc(-c4cccc5[nH]ncc45)nc(N4CCOCC4)c3s2)CC1 [pictilisib]
Summary of the method: as §1

[4] = compound: CS(=O)(=O)c1ccc(-c2cnc(N)c(C(=O)Nc3ccccc3)n2)cc1
Summary of the method: as §1

crizotinib = compound: C[C@@H](Oc1cc(-c2cnn(C3CCNCC3)c2)cnc1N)c1c(Cl)ccc(F)c1Cl [crizotinib]
Summary of the method: as §1

[5] = compound: C[C@@H]1COCCN1C2=NC(=NC(=C2)C3(CC3)S(=O)(=O)C)C4=C5C=CNC5=CC=C4
Summary of the method: as §1

[6] = compound: C[C@H](C1=CC=C(C=C1)C(=O)NC2=C3C=CNC3=NC=C2)N
Summary of the method: as §1

duvelisib = compound: C[C@H](Nc1ncnc2nc[nH]c12)c1cc2cccc(Cl)c2c(=O)n1-c1ccccc1 [duvelisib]
Summary of the method: as §1

gandotinib = compound: Cc1cc(Nc2cc(CN3CCOCC3)c3nc(C)c(Cc4ccc(Cl)cc4F)n3n2)n[nH]1 [gandotinib]
Summary of the method: as §1

tozasertib = compound: Cc1cc(Nc2cc(N3CCN(C)CC3)nc(Sc3ccc(NC(=O)C4CC4)cc3)n2)n[nH]1 [tozasertib]
Summary of the method: as §1

[7] = compound: Cc1cc(SCc2sc(-c3ccc(C(F)(F)F)cc3)nc2C)ccc1OCC(=O)O
Summary of the method: as §1

doramapimod = compound: Cc1ccc(-n2nc(C(C)(C)C)cc2NC(=O)Nc2ccc(OCCN3CCOCC3)c3ccccc23)cc1 [doramapimod]
Summary of the method: as §1

ispinesib = compound: Cc1ccc(C(=O)N(CCCN)[C@@H](c2nc3cc(Cl)ccc3c(=O)n2Cc2ccccc2)C(C)C)cc1 [ispinesib]
Summary of the method: as §1

Measured: log2 fold change

PNISR (UniProt Q8TF01)
inactive: [1] -0.033 | filanesib -0.017 | zotarolimus -0.046 | idasanutlin 0.014 | alisertib -0.032 | [2] -0.019 | gefitinib 0.019 | [3] 0.029 | lapatinib 0.052 | pictilisib 0.038 | [4] 0.005 | crizotinib 0.016 | [5] 0.029 | [6] -0.059 | duvelisib -0.001 | gandotinib 0.01 | tozasertib -0.047 | [7] -0.037 | doramapimod -0.051 | ispinesib 0.104

POMGNT1 isoform 2 (UniProt Q8WZA1)
inactive: [1] -0.23 | filanesib 0.019 | zotarolimus -0.003 | idasanutlin 0.038 | alisertib -0.238 | [2] 0.11 | gefitinib 0.157 | [3] -0.145 | lapatinib -0.102 | pictilisib 0.101 | [4] 0.113 | crizotinib -0.011 | [5] 0.036 | [6] 0.122 | duvelisib 0.08 | gandotinib 0.012 | tozasertib -0.067 | [7] -0.108 | doramapimod 0.013 | ispinesib -0.186

PMF1 (UniProt Q6P1K2)
inactive: [1] -0.07 | filanesib 0 | zotarolimus 0.062 | idasanutlin 0.159 | alisertib 0.027 | [2] -0.057 | gefitinib 0.391 | [3] -0.053 | lapatinib 0.014 | pictilisib 0.074 | [4] 0.016 | crizotinib 0.119 | [5] 0.013 | [6] -0.005 | duvelisib 0.103 | gandotinib -0.007 | tozasertib 0.052 | [7] 0.083 | doramapimod -0.002 | ispinesib -0.057

PLPP6 (UniProt Q8IY26)
inactive: [1] 0.04 | filanesib -0.044 | zotarolimus -0.168 | idasanutlin 0 | alisertib -0.034 | [2] -0.128 | gefitinib -0.001 | [3] 0.034 | lapatinib 0.299 | pictilisib -0.246 | [4] -0.011 | crizotinib -0.066 | [5] 0.008 | [6] 0.147 | duvelisib 0.256 | gandotinib 0.09 | tozasertib 0.042 | [7] 0.093 | doramapimod 0.045 | ispinesib 0.037

POP4 (UniProt O95707)
inactive: [1] -0.058 | filanesib -0.005 | zotarolimus 0.083 | idasanutlin -0.048 | alisertib -0.057 | [2] 0.124 | gefitinib -0.017 | [3] 0 | lapatinib -0.055 | pictilisib 0.038 | [4] 0.032 | crizotinib 0.039 | [5] 0.043 | [6] 0.01 | duvelisib 0.051 | gandotinib 0.073 | tozasertib 0.012 | [7] 0.05 | doramapimod 0.084 | ispinesib -0.023

PPAT (UniProt Q06203)
inactive: [1] 0.003 | filanesib -0.018 | zotarolimus 0.038 | idasanutlin -0.012 | alisertib -0.082 | [2] 0.02 | gefitinib -0.013 | [3] 0.055 | lapatinib -0.04 | pictilisib 0.028 | [4] 0.012 | crizotinib 0.041 | [5] 0.025 | [6] -0.045 | duvelisib 0.028 | gandotinib -0.003 | tozasertib 0.012 | [7] -0.047 | doramapimod -0.022 | ispinesib 0.028

POLG2 (UniProt Q9UHN1)
inactive: [1] 0.089 | filanesib 0.012 | zotarolimus 0.008 | idasanutlin 0.024 | alisertib -0.053 | [2] -0.005 | gefitinib -0.014 | [3] 0.011 | lapatinib -0.042 | pictilisib 0.012 | [4] -0.024 | crizotinib 0.014 | [5] -0.007 | [6] -0.074 | duvelisib -0.023 | gandotinib -0.007 | tozasertib -0.025 | [7] -0.018 | doramapimod -0.038 | ispinesib -0.021

PLOD3 (UniProt O60568)
inactive: [1] -0.075 | filanesib 0.075 | zotarolimus 0.007 | idasanutlin 0.011 | alisertib -0.084 | [2] 0.015 | gefitinib 0.019 | [3] -0.061 | lapatinib 0.039 | pictilisib 0 | [4] 0.017 | crizotinib 0.055 | [5] -0.058 | [6] 0.104 | duvelisib -0.015 | gandotinib 0.071 | tozasertib 0.015 | [7] -0.005 | doramapimod 0.05 | ispinesib -0.008

PPIC (UniProt P45877)
inactive: [1] -0.043 | filanesib 0.082 | zotarolimus -0.083 | idasanutlin -0.111 | alisertib 0.056 | [2] 0.058 | gefitinib -0.03 | [3] 0.072 | lapatinib 0.052 | pictilisib 0.092 | [4] 0.008 | crizotinib 0.018 | [5] -0.023 | [6] 0.313 | duvelisib -0.065 | gandotinib 0.208 | [7] 0.023 | doramapimod -0.043

POGLUT3 (UniProt Q7Z4H8)
inactive: [1] -0.089 | filanesib 0.009 | zotarolimus 0.006 | idasanutlin 0.007 | alisertib -0.003 | [2] 0.059 | gefitinib 0.004 | [3] -0.04 | lapatinib 0.02 | pictilisib -0.03 | [4] 0.022 | crizotinib 0.01 | [5] -0.035 | [6] 0.059 | duvelisib -0.056 | gandotinib 0.005 | tozasertib -0.002 | [7] 0.023 | doramapimod 0.009 | ispinesib -0.011

POLR2F (UniProt P61218)
inactive: [1] 0.185 | filanesib -0.065 | zotarolimus 0.081 | idasanutlin 0.071 | alisertib -0.416 | [2] 0.099 | gefitinib -0.027 | [3] -0.208 | lapatinib 0.009 | pictilisib 0.108 | [4] -0.1 | crizotinib 0.213 | [5] 0.132 | [6] 0.147 | duvelisib 0.131 | gandotinib 0.206 | tozasertib 0.202 | [7] -0.143 | doramapimod -0.167 | ispinesib 0.059

POSTN (UniProt Q15063)
inactive: [1] 0.103 | filanesib -0.064 | zotarolimus -0.294 | idasanutlin 0.166 | alisertib 0 | [2] -0.015 | gefitinib -0.053 | [3] 0.196 | lapatinib -0.058 | pictilisib -0.052 | [4] -0.001 | crizotinib 0.001 | [5] 0.104 | [6] 0.102 | duvelisib 0.032 | gandotinib -0.243 | tozasertib 0.027 | [7] 0.099 | doramapimod -0.163 | ispinesib 0.015

Taken from the entries so far (4 entries):
PPAT (UniProt Q06203)
inactive: [1] 0.003 | filanesib -0.018 | zotarolimus 0.038 | idasanutlin -0.012 | alisertib -0.082 | [2] 0.02 | gefitinib -0.013 | [3] 0.055 | lapatinib -0.04 | pictilisib 0.028 | [4] 0.012 | crizotinib 0.041 | [5] 0.025 | [6] -0.045 | duvelisib 0.028 | gandotinib -0.003 | tozasertib 0.012 | [7] -0.047 | doramapimod -0.022 | ispinesib 0.028

POLG2 (UniProt Q9UHN1)
inactive: [1] 0.089 | filanesib 0.012 | zotarolimus 0.008 | idasanutlin 0.024 | alisertib -0.053 | [2] -0.005 | gefitinib -0.014 | [3] 0.011 | lapatinib -0.042 | pictilisib 0.012 | [4] -0.024 | crizotinib 0.014 | [5] -0.007 | [6] -0.074 | duvelisib -0.023 | gandotinib -0.007 | tozasertib -0.025 | [7] -0.018 | doramapimod -0.038 | ispinesib -0.021

PLOD3 (UniProt O60568)
inactive: [1] -0.075 | filanesib 0.075 | zotarolimus 0.007 | idasanutlin 0.011 | alisertib -0.084 | [2] 0.015 | gefitinib 0.019 | [3] -0.061 | lapatinib 0.039 | pictilisib 0 | [4] 0.017 | crizotinib 0.055 | [5] -0.058 | [6] 0.104 | duvelisib -0.015 | gandotinib 0.071 | tozasertib 0.015 | [7] -0.005 | doramapimod 0.05 | ispinesib -0.008

PPIC (UniProt P45877)
inactive: [1] -0.043 | filanesib 0.082 | zotarolimus -0.083 | idasanutlin -0.111 | alisertib 0.056 | [2] 0.058 | gefitinib -0.03 | [3] 0.072 | lapatinib 0.052 | pictilisib 0.092 | [4] 0.008 | crizotinib 0.018 | [5] -0.023 | [6] 0.313 | duvelisib -0.065 | gandotinib 0.208 | [7] 0.023 | doramapimod -0.043

Remaining list, next part:

POLDIP3 (UniProt Q9BY77)
inactive: [1] 0.006 | filanesib 0.189 | zotarolimus 0.012 | idasanutlin 0.076 | alisertib -0.06 | [2] -0.022 | gefitinib -0.003 | [3] 0.029 | lapatinib 0.039 | pictilisib -0.05 | [4] -0.009 | crizotinib 0.012 | [5] -0.206 | [6] 0.088 | duvelisib -0.029 | gandotinib 0.054 | tozasertib 0 | [7] -0.057 | doramapimod 0.028 | ispinesib 0.005

POLR3G (UniProt O15318)
inactive: [1] -0.074 | filanesib 0.01 | zotarolimus -0.033 | idasanutlin 0.11 | alisertib -0.06 | [2] -0.1 | gefitinib -0.04 | [3] 0.027 | lapatinib 0.065 | pictilisib -0.014 | [4] -0.039 | crizotinib 0.058 | [5] -0.028 | [6] -0.078 | duvelisib 0.008 | gandotinib -0.007 | tozasertib 0.045 | [7] 0.006 | doramapimod -0.039 | ispinesib -0.013

PLXNB2 (UniProt O15031)
inactive: [1] 0.003 | filanesib 0.034 | zotarolimus -0.042 | idasanutlin -0.034 | alisertib -0.022 | [2] 0.073 | gefitinib 0.014 | [3] 0.053 | lapatinib 0.017 | pictilisib 0.006 | [4] 0.008 | crizotinib -0.008 | [5] 0.054 | [6] 0.004 | duvelisib 0.102 | gandotinib -0.015 | tozasertib -0.014 | [7] 0.025 | doramapimod 0.045 | ispinesib 0.027

PLS3 (UniProt P13797)
inactive: [1] -0.14 | filanesib 0.031 | zotarolimus 0.008 | idasanutlin -0.026 | alisertib 0.031 | [2] 0.004 | gefitinib -0.013 | [3] 0.039 | lapatinib -0.022 | pictilisib 0.036 | [4] 0.049 | crizotinib 0.049 | [5] 0.05 | [6] -0.021 | duvelisib 0.018 | gandotinib -0.096 | tozasertib -0.028 | [7] 0.002 | doramapimod -0.021 | ispinesib -0.017
